In PubChem BioAssay AID2685 (National Center for Advancing Translational Sciences (NCATS), 2010):
This is one part of the list. Shown are side measurements of this screen, not its main read-out; they come without a call. The list favours compounds with an active or inconclusive main result. Potencies come from curve fits of mixed quality, noted in brackets.

Assay: qHTS Assay for Lipid Storage Modulators in Drosophila S3 Cells;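 as to cell number change: cells counted by Cell Tracker Red CMTPX staining in the red channel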
Settings: BODIPY lipid droplet fluorescence, 18-24 h; for cell number change: measured here: cell count max response, cells fed with added oleic acid
Procedure, shortened: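 Drosophila S3 cells loaded with oleic acid (400 uM, as added) and compounds at several concentrations; lipid droplets imaged by 488-nm laser-scanning cytometry, 500–530 nm intensity and object ratio to cell channel. Percent activity normalized to 20 uM Triacsin C.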

[1] = measured here: cell number channel AC50, cells fed with added oleic acid
[2] = measured here: lipid fluorescence (Fed channel) AC50, cells fed with added oleic acid

CC(C)c1cccc(C(C)C)c1OC(=O)[C@H]1OC(C(C)(C)C)=C[C@@H]1c1ccccc1
cell number change: -31.6%
AC50 [1]: 7.31 µM [falling, single point]

COc1ccc(-c2cc(C(F)(F)F)n3nc(C(=O)NCc4ccco4)c(Cl)c3n2)cc1
cell number change: 5.94%
AC50 [2]: 29.1 µM [rising, single point]

CC1CCN(CC(=O)NC(=O)NCc2ccccc2)CC1
cell number change: 0.235%
AC50 [2]: 29.1 µM [falling, single point]

O=C(Nc1ccc(CN2CCOCC2)cc1)c1ccc(-c2cc(Cl)ccc2Cl)o1
cell number change: -16.9%
AC50 [2]: 20.6 µM [rising, partial curve]

COc1ccccc1NC(=O)CSc1nnc(C)s1
cell number change: -3.63%

O=C(Nc1ccc(OC(F)F)cc1)Nc1cccc(C(F)(F)F)c1
cell number change: -55.4%
AC50 [1]: 25.9 µM [falling, partial curve, poor fit]
AC50 [2]: 7.31 µM [falling, partial curve]

COc1cc(/C=C(/C#N)C(=O)NC(C)c2ccccc2)cc(OC)c1O (stereo not drawn)
cell number change: 15.4%

CCCCCCNC(=O)c1cn(CC)c2cc(N3CCN(C)CC3)c(F)cc2c1=O
cell number change: -34.6%
AC50 [1]: 23.1 µM [falling, single point]
AC50 [2]: 20.6 µM [falling, partial curve, poor fit]

Fc1ccc(-c2nnc(NC3=NCCCCC3)o2)cc1
cell number change: -13%
AC50 [2]: 0.0259 µM [falling, full curve, poor fit]

CCCCCn1cnc2c(=S)nc(N)[nH]c21
cell number change: -33.3%
AC50 [1]: 3.66 µM [falling, partial curve, poor fit]

Cc1ccc(S(=O)(=O)NC(=NC(Cc2ccccc2)C(=O)O)c2ccccc2)cc1 (stereo not drawn)
cell number change: 31%
AC50 [1]: 0.0651 µM [rising, full curve, poor fit]

CCN1/C(=C/c2ccc3cccc(C)c3[n+]2CC)Sc2ccccc21
cell number change: -43.1%
AC50 [1]: 25.9 µM [falling, single point]
AC50 [2]: 0.411 µM [falling, full curve]

COc1cccc(CN(C)C(=O)c2ccc(NC(=O)CC3SC(N4CCCC4)=NC3=O)cc2)c1OC (stereo not drawn)
cell number change: 26.5%

OCCCc1nc2n(n1)C(c1cccs1)C=C(c1ccc(Br)cc1)N2 (stereo not drawn)
cell number change: -61.3%
AC50 [1]: 29.1 µM [falling, single point]
AC50 [2]: 29.1 µM [falling, single point]

O=C(O)C1C(c2ccccc2)C(C(=O)OCCCO)C1c1ccccc1 (stereo not drawn)
cell number change: 10.5%
AC50 [2]: 3.66 µM [falling, full curve, poor fit]

Cc1cc(C)n(-c2cc(-c3ccccc3)nc(C)n2)n1
cell number change: -11.7%
AC50 [2]: 4.11 µM [rising, full curve]
